Test results taken from PMC3556083.
These are yes or no findings as the source states them, for the method shown. Binding seen in cells or lysates may run through a third protein. Here binding means that the protein was enriched with, or labelled near, the bait; the list need not be complete.

B1: STAT4 (protein, UniProt Q66HB2 1-748)
chain: MSQWNQVQQLEIKFLEQVDQFYDDNFPMEIRHLLAQWIETQDWEVASNNETMATILLQNLLIQLDEQLGRVSKEKNLLLIHNLKRIRKVLQGKFHGNPMHVAVVISNCLREERRILAAANMPIQGPLEKSLQSSSVSERQRNVEHKVAAIKNSVQMTEQDTKYLEDLQDEFDYRYKTIQTMDQGDKNSILVNQEVLTLQEMLNNLDFKRKEALSKMTQIVNETDLLMNSMLLEELQDWKKRQQIACIGGPLHNGLDQLQNCFTLLAESLFQLRQQLEKLQEQSTKMTYEGDPIPAQRVHLLERATFLIYNLFKNSFVVERQPCMPTHPQRPMVLKTLIQFTVKLRLLIKLPELNYQVKVKASIDKNVSTLSNRRFVLCGTHIKAMSSEESSNGSLSVEFRHLQPKEMKCSTGSKGNEGCHMVTEELHSITFETQICLYGLTINLETSSLPVVMISNVSQLPNAWASIIWYNVSTNDSQNLVFFNNPPSVTLGQLLEVMSWQFSSYVGRGLNSDQLNMLAEKLTVQSNYSDGHLTWAKFCKEHLPGKTFTFWTWLEAILDLIKKHILPLWIDGYIMGFVSKEKERLLLKDKMPGTFLLRFSESHLGGITFTWVDQSENGEVRFHSVEPYNKARLSALPFADILRDYKVIMAENIPENPLKYLYPDIPKDKAFGKHYSSQPCEVSRPTERGDKGYVPSVFIPISTIRSDSTEPQSPSDLLPMSPSAYAVLRENLSPTTIETAMNSPYSAE
B2: MARCKS (includes EG:4082) (protein, UniProt P30009 1-309)
chain: MGAQFSKTAAKGEAAAERPGEAAVASSPSKANGQENGHVKVNGDASPAAAEPGAKEELQANGSAPAADKEEPASGGAATPAAADKDEAAAAPEPGAATADKEAAEAEPAEPGSPSAETEGASASSTSSPKAEDGAAPSPSSETPKKKKKRFSFKKSFKLSGFSFKKSKKEAGEGAEAEGATADGAKDEAAAAAGGDAAAAPGEQAGGAGAEGAEGGESREAEAAEPEQPEQPEQPAAEEPRAEEPSEAVGEKAEEPAPGATADDAPSAAGPEQEAPAATDEPAASAAPSASPEPQPECSPEAPPAPVAE
B3: HK1 (protein, UniProt P05708 1-918)
chain: MIAAQLLAYYFTELKDDQVKKIDKYLYAMRLSDEILIDILTRFKKEMKNGLSRDYNPTASVKMLPTFVRSIPDGSEKGDFIALDLGGSSFRILRVQVNHEKNQNVSMESEIYDTPENIVHGSGTQLFDHVADCLGDFMEKKKIKDKKLPVGFTFSFPCRQSKIDEAVLITWTKRFKASGVEGADVVKLLNKAIKKRGDYDANIVAVVNDTVGTMMTCGYDDQQCEVGLIIGTGTNACYMEELRHIDLVEGDEGRMCINTEWGAFGDDGSLEDIRTEFDRELDRGSLNPGKQLFEKMVSGMYMGELVRLILVKMAKEGLLFEGRITPELLTRGKFNTSDVSAIEKDKEGIQNAKEILTRLGVEPSDVDCVSVQHICTIVSFRSANLVAATLGAILNRLRDNKGTPRLRTTVGVDGSLYKMHPQYSRRFHKTLRRLVPDSDVRFLLSESGTGKGAAMVTAVAYRLAEQHRQIEETLAHFRLSKQTLMEVKKRLRTEMEMGLRKETNSKATVKMLPSFVRSIPDGTEHGDFLALDLGGTNFRVLLVKIRSGKKRTVEMHNKIYSIPLEIMQGTGDELFDHIVSCISDFLDYMGIKGPRMPLGFTFSFPCHQTNLDCGILISWTKGFKATDCEGHDVASLLRDAVKRREEFDLDVVAVVNDTVGTMMTCAYEEPTCEIGLIVGTGTNACYMEEMKNVEMVEGNQGQMCINMEWGAFGDNGCLDDIRTDFDKVVDEYSLNSGKQRFEKMISGMYLGEIVRNILIDFTKKGFLFRGQISEPLKTRGIFETKFLSQIESDRLALLQVRAILQQLGLNSTCDDSILVKTVCGVVSKRAAQLCGAGMAAVVEKIRENRGLDHLNVTVGVDGTLYKLHPHFSRIMHQTVKELSPKCTVSFLLSEDGSGKGAALITAVGVRLRGDPSIA
B4: RAB21 (protein, UniProt Q6AXT5 1-223)
chain: MAAAGGGAAAAAGRAYSFKVVLLGEGCVGKTSLVLRYCENKFNDKHITTLQASFLTKKLNIGGKRVNLAIWDTAGQERFHALGPIYYRDSNGAILVYDVTDEDSFQKVKNWVKELRKMLGNEICLCIVGNKIDLEKERHVSIQEAESYAESVGAKHYHTSAKQNKGIEELFLDLCKRMIETAQVDERAKGNGSSQAGAARRGVQIIDDEPQAQSGSGGCCSSG
B5: EHD1 (protein, UniProt Q641Z6 1-534)
chain: MFSWVSKDARRKKEPELFQTVAEGLRQLYAQKLLPLEEHYRFHEFHSPALEDADFDNKPMVLLVGQYSTGKTTFIRHLIEQDFPGMRIGPEPTTDSFIAVMHGPTEGVVPGNALVVDPRRPFRKLNAFGNAFLNRFMCAQLPNPVLDSISIIDTPGILSGEKQRISRGYDFAAVLEWFAERVDRIILLFDAHKLDISDEFSEVIKALKNHEDKIRVVLNKADQIETQQLMRVYGALMWSLGKIINTPEVVRVYIGSFWSHPLLIPDNRKLFEAEEQDLFKDIQSLPRNAALRKLNDLIKRARLAKVHAYIISSLKKEMPNVFGKESKKKELVNNLGEIYQKIEREHQISSGDFPSLRKMQELLQTQDFSKFQALKPKLLDTVDDMLANDIARLMVMVRQEESLMPSQAVKGGAFDGTMNGPFGHGYGEGAGEGIDDVEWVVGKDKPTYDEIFYTLSPVNGKITGANAKKEMVKSKLPNTVLGKIWKLADVDKDGLLDDEEFALANHLIKVKLEGHELPADLPPHLIPPSKRRHE
B6: TXN (protein, UniProt P11232 1-105)
chain: MVKLIESKEAFQEALAAAGDKLVVVDFSATWCGPCKMIKPFFHSLCDKYSNVVFLEVDVDDCQDVAADCEVKCMPTFQFYKKGQKVGEFSGANKEKLEATITEFA
B7: SOD2 (protein, UniProt P07895 25-222)
chain: KHSLPDLPYDYGALEPHINAQIMQLHHSKHHATYVNNLNVTEEKYHEALAKGDVTTQVALQPALKFNGGGHINHSIFWTNLSPKGGGEPKGELLEAIKRDFGSFEKFKEKLTAVSVGVQGSGWGWLGFNKEQGRLQIAACSNQDPLQGTTGLIPLLGIDVWEHAYYLQYKNVRPDYLKAIWNVINWENVSQRYIVCKK
B8: PLA2G6 (protein, UniProt P97570 1-807)
chain: MQFFGRLVNTLSSVTNLFSNPFRVKEVSLADYASSERVREEGQLILLQNASNRTWDCVLVSPRNPQSGFRLFQLESEADALVNFQQYSSQLPPFYESSVQVLHVEVLQHLTDLIRNHPSWTVTHLAVELGIRECFHHSRIISCANSTENEEGCTPLHLACRKGDSEILVELVQYCHAQMDVTDNKGETAFHYAVQGDNPQVLQLLGKNASAGLNQVNNQGLTPLHLACQMGKQEMVRVLLLCNARCNIMGPGGFPIHTAMKFSQKGCAEMIISMDSNQIHSKDPRYGASPLHWAKNAEMARMLLKRGCDVDSTSASGNTALHVAVTRNRFDCVMVLLTYGANAGARGEHGNTPLHLAMSKDNMEMVKALIVFGAEVDTPNDFGETPAFIASKISKLITRKALLTLLKTVGADYHFPFIQGVSTEQSSAAGPHPFFSLDRTQPPTISLNNLELQDLMPVSRARKPAFILSSMRDEKRSHDHLLCLDGGGVKGLVIIQLLIAIEKASGVATKDLFDWVAGTSTGGILALAILHSKSMAYMRGVYFRMKDEVFRGSRPYESGPLEEFLKREFGEHTKMTDVKKPKVMLTGTLSDRQPAELHLFRNYDAPEAVREPRCTPNINLKPPTQPADQLVWRAARSSGAAPTYFRPNGRFLDGGLLANNPTLDAMTEIHEYNQDMIRKGQGNKVKKLSIVVSLGTGKSPQVPVTCVDVFRPSNPWELAKTVFGAKELGKMVVDCCTDPDGRAVDRARAWCEMVGIQYFRLNPQLGSDIMLDEVSDAVLVNALWETEVYIYEHREEFQKLVQLLLSP
B9: INPPL1 (protein, UniProt Q9WVR3 1-1257)
chain: MASVCGAPSPGGALGSQAPAWYHRDLSRAAAEELLARAGRDGSFLVRDSESVAGAFALCVLYQKHVHTYRILPDGEDFLAVQTSQGVPVRRFQTLGELIGLYAQPNQGLVCALLLPVEGEREPDPPDDRDASDVEDEKPPLPPRSGSTSISVPAGPSSPLPAPETPTTPAAESTPNGLSTVSHEYLKGSYGLDLEAVRGGASNLPHLTRTLVTSCRRLHSEVDKVLSGLEILSKVFDQQSSPMVTRLLQQQSLPQTGEQELESLVLKLSVLKDFLSGIQKKALKALQDMSSTAPPAPLQPSIRKAKTIPVQAFEVKLDVTLGDLTKIGKSQKFTLSVDVEGGRLVLLRRQRDSQEDWTTFTHDRIRQLIKSQRVQNKLGVVFEKEKDRTQRKDFIFVSARKREAFCQLLQLMKNKHSKQDEPDMISVFIGTWNMGSVPPPKNVTSWFTSKGLGKALDEVTVTIPHDIYVFGTQENSVGDREWLDLLRGGLKELTDLDYRPIAMQSLWNIKVAVLVKPEHENRISHVSTSSVKTGIANTLGNKGAVGVSFMFNGTSFGFVNCHLTSGNEKTTRRNQNYLDILRLLSLGDRQLSAFDISLRFTHLFWFGDLNYRLDMDIQEILNYISRREFEPLLRVDQLNLEREKHKVFLRFSEEEISFPPTYRYERGSRDTYAWHKQKPTGVRTNVPSWCDRILWKSYPETHIICNSYGCTDDIVTSDHSPVFGTFEVGVTSQFISKKGLSKTSDQAYIEFESIEAIVKTASRTKFFIEFYSTCLEEYKKSFENDAQSSDNINFLKVQWSSRQLPTLKPILADIEYLQDQHLLLTVKSMDGYESYGECVVALKSMIGSTAQQFLTFLSHRGEETGNIRGSMKVRVPTERLGTRERLYEWISIDKDDTGAKSKAPSVLRGSQEHRSGSRKPTSTEASCPLSKLFEEPEKPPPTGRPPAPPRAVPREESLNPRLKSEGTPEQEGVAAPPPKNSFNNPAYYVLEGVPHQLLPLEPTSFARAPIPPTTKNKVAITVPAPQLGRHRTPRVGEGSSSDEDSGGTLPPPDFPPPPLPDSAIFLPPNLDPLSMPVVRGRSVGEARGPPPPKAHPRPPLPPGTSPASTFLEEVASADDRSCSVLQMAKTLSEVDYSPGPGRSALLPNPLELQLPRGPSDYGRPLSFPPPRIRESIQEDLAEEAPCPQGGRASGLGEAGMGAWLRAIGLERYEEGLVHNGWDDLEFLSDITEEDLEEAGVQDPAHKRLLLDTLQLSK

target: β2-adrenergic receptor (UniProt P07550); assay: affinity purification with mass spectrometry; purified Flag-β2AR in rHDL immobilised on M1 anti-Flag resin, occupied by 50 µM BI-167107 (full agonist) or 50 µM carazolol (inverse agonist); adult rat heart cytosol (10 mg/ml, 4 mM CaCl2) overnight at 4°C; eluted with FLAG peptide and EDTA; gel slices, LC-MS; proteins of the M1 resin, empty rHDL and Ni-NTA controls subtracted; hits of either or both samples; only the target purified

binding, binds:
B1, B2, B3, B4, B5, B6, B7, B8, B9
